Laboratory results reported in US20110112032A1, “Regulation of Brain Natriuretic Peptide and Catecholamines for the Treatment of Cardiovascular Diseases” (priority 2005, published 2011).

Tested on: rat myocardial infarct model
Assay type: in vivo
[1] = N = 6, DPDPE 200 ng/kg iv, labetalol 2 mg/kg iv

Compound	Body wt [1] [g]	LV wt [1] [mg]	Body wt (rat, in vivo) [g]	LV wt (rat, in vivo) [mg]
CC(CCc1ccccc1)NCC(O)c1ccc(O)c(C(N)=O)c1 (stereo not shown) [Labetalol, labetalol]	286 ± 5.1	801 ± 1	–	–
[D-Pen^25]-enkephalin [DPDPE]	–	–	287.5 ± 4.1	800 ± 1

Read-outs that look alike come from different tables or passages of the source.
